Laboratory results reported in PubChem BioAssay AID540275 (National Center for Advancing Translational Sciences (NCATS), 2011).
The campaign covered roughly 320,000 compounds. About 620 (0.19%) were called active. Inconclusive results, whose numbers are uncertain, are shown with a selection of clear calls. No stated cut-off is given here; in the data, active means activation above about 80%; inconclusive means between about 30% and that limit; inactive means weaker than that.

Chains of the proteins cited; added tags and fusions are not shown.
UniProt Q8NER1, whole entry, looked up: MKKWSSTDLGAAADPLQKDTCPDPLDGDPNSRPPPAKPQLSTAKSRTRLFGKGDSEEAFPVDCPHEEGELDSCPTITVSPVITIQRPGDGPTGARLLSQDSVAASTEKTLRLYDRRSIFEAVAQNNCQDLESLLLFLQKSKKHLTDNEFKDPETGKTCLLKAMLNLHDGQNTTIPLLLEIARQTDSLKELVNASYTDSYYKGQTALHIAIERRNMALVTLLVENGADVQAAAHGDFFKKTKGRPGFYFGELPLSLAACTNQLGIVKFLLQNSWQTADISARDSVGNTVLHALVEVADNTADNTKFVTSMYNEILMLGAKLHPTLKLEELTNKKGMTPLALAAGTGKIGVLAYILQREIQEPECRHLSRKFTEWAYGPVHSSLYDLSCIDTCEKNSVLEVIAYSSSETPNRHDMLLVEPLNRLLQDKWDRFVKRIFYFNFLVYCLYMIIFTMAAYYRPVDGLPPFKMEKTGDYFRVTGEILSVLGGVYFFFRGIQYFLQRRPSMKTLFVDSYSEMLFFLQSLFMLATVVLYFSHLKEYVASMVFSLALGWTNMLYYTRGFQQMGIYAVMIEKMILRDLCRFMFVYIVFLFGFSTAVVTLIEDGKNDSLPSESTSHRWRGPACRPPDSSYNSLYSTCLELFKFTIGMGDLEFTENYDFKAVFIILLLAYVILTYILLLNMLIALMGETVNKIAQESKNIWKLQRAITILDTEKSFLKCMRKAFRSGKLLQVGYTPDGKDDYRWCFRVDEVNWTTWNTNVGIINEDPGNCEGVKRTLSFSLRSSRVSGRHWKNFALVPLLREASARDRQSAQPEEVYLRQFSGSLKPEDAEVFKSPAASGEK

Target: Transient receptor potential cation channel subfamily V member 1 (Homo sapiens) (UniProt Q8NER1)
Test: HTS Assay for Compounds that Act as Agonists of the Vanilloid Receptor 1; further: 0% is about no effect
Details: TRPV1-expressing cells, Fluo-8 calcium influx, agonist mode; at 8.33 µM, stronger effect = higher value
Outline: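 Cells expressing TRPV1 were dye-loaded with Fluo-8 and read kinetically: 10 s baseline, 3 min after compound (agonist portion), then 2 min after EC20 capsaicin (allosteric enhancer portion). Calcium-bound dye fluorescence at 480/520 nm.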

Row | Compound | activation
1 | Cc1ccccc1N1CCN(CC(=O)Nc2ccccc2C(=O)NC2CC2)CC1 | inconclusive: 45.8%
2 | O=C(NCc1cccnc1)c1ccc(COc2ccc(Cl)cc2Cl)o1 | inconclusive: 64.2%
3 | Cc1oc(-c2cccs2)nc1CS(=O)CC(=O)NCCc1ccccc1 (stereo not given) | active: 87.4%
4 | CCCC(=O)C1=C(O)C(C(=O)OC)C(C)(C)CC1=Nc1ccc(C)cc1 (stereo not given) | inconclusive: 30%
5 | CCOC(=O)Cc1csc(NC(=O)/C=C\c2ccccc2Cl)n1 | inconclusive: 30.7%
6 | CCOc1ccc(/C=C2\SC(=S)NC2=O)cc1OC | inactive: -0.569%
7 | CCn1c(/C(C#N)=N/O)nc2ccccc21 | inactive: -3.58%
8 | Oc1oc(-c2ccc(Br)cc2)nc1/C=N/c1ccccn1 | inconclusive: 30.9%
9 | Cc1ccccc1OCC(=O)N(Cc1nnc(-c2ccc(Cl)cc2)o1)C(C)C | inactive: 4.48%
10 | O=C(/C=C/c1ccc(S(=O)(=O)N2CCOCC2)cc1)N1CCCCC1 | inconclusive: 47.2%
11 | O=C(c1cc(COc2ccc(F)cc2F)on1)N1CCCC(c2ccccc2)C1 (stereo not given) | inconclusive: 47.9%
12 | Cc1ccc(/C=C/C(=O)Nc2ccc(N(C)C)cc2)o1 | inconclusive: 37.7%
13 | O=C(CSc1nnnn1-c1ccc2c(c1)OCO2)NCc1ccccc1 | inactive: 2.12%
14 | CN(C)c1ccc(NC(=O)Cc2ccccc2)c2ccccc12 | inconclusive: 59.2%
15 | O=C(CSCc1ccccc1)N1CCN(c2cccc(C(F)(F)F)c2)CC1 | inconclusive: 44.8%
16 | CCN1CCN(c2ccc(S(=O)(=O)N3CCCCC3)cc2NC(=O)COc2ccc(F)cc2Cl)CC1 | inactive: 18.3%
17 | O=C(N/N=C/c1cccnc1)c1ccccc1OCc1ccc(Br)cc1 | inconclusive: 68.7%
18 | O=C(CCCOc1ccccc1)Nc1cccc([N+](=O)[O-])c1 | inconclusive: 49.2%
19 | Cc1ccc(C)c(C(C)NC(=S)NC2CCCCC2)c1 (stereo not given) | inconclusive: 46.5%
20 | COc1ccccc1NC(=O)Nc1nc(CC(=O)NCc2c(F)cccc2F)cs1 | inactive: -0.0656%
21 | C=CCC1(CC=C)CCCN1C(=O)c1cc(COc2ccc(-n3cncn3)cc2)on1 | inconclusive: 61.5%
22 | Cc1ccc(NC(=O)CC2SCCNC2=O)cc1[N+](=O)[O-] (stereo not given) | inactive: 2.82%
23 | c1cncc(CNc2ccc3c(c2)OCO3)c1 | inactive: -1.14%

Row | Compound | activation
24 | NS(=O)(=O)c1cccc(NC(=O)COC(=O)c2cc(-c3ccc(Cl)cc3)nc3ccccc23)c1 | inconclusive: 34%
25 | C/C=C(\C)CN1CCN(c2ccccc2)CC1 | inactive: -5.97%
26 | N#Cc1c(SCC(N)=O)nsc1SCc1ccc(Cl)cc1 | inconclusive: 64.5%
27 | O=C(NCc1ccccc1)N1CCN(c2ccccc2)CC1 | inconclusive: 35%
28 | CCOC(=O)C1CCCN(C(=O)CN2C(=O)/C(=C/c3ccc(OC)cc3)Oc3ccccc32)C1 (stereo not given) | inactive: 0.57%
29 | O=C(NC1CCCCC1)N1CCN(S(=O)(=O)c2ccc(F)cc2)CC1 | inconclusive: 49.5%
30 | CCCNc1nc(OCC(F)(F)F)nc(OCC(F)(F)F)n1 | inactive: 2.08%
31 | CCOC(=O)c1c(C)nc2c(c1-c1ccc(OC)c(OC)c1)C(=O)c1ccccc1-2 | inconclusive: 35.1%
32 | Cc1onc(-c2c(Cl)cccc2Cl)c1C(=O)N1CCCc2ccccc21 | inactive: -2.23%
33 | COc1ccc(/C=N/Nc2nc(N3CCCC3)nc(N3CCCC3)n2)c(OC)c1OC | inconclusive: 39.6%
34 | O=C(Nc1cccnc1)c1cccc(S(=O)(=O)N2CCc3ccccc32)c1 | inconclusive: 43.8%
35 | O=C(Nc1ccc(N2CCCCC2)c(Cl)c1)c1ccc(N2CCOCC2)c([N+](=O)[O-])c1 | inconclusive: 67.2%
36 | CCOCCCn1c(=S)[nH]c2ncccc2c1=O | inactive: -0.763%
37 | CCn1cc(/C=C/c2cc[n+](C)cc2)c2ccccc21 | inactive: -7.46%
38 | CCc1ccc(-c2cc(C(=O)N/N=C/c3ccccn3)[nH]n2)cc1 | inactive: -1.44%
39 | O=C(/C=C/c1cn(CC(O)CN2CCOCC2)c2ccccc12)c1cccs1 (stereo not given) | inactive: 12.7%
40 | CC(=O)N1c2ccc(S(=O)(=O)N3CCCC(C(=O)N4CCCC(C)C4)C3)cc2CC1C (stereo not given) | inconclusive: 60.5%
41 | O=C(Nc1ccc2c(c1)CCC2)c1cccs1 | inconclusive: 79.7%
42 | O=[N+]([O-])c1ccccc1N/N=C/c1cccc(O)c1O | inactive: 2.29%
43 | COc1ccc(-n2c(C)c(C)c3c(NCCN(C)C)ncnc32)cc1 | inactive: -0.593%
44 | Cc1ccccc1CN1CCCC(C(=O)Nc2ccccc2Oc2cccnc2)C1 (stereo not given) | inconclusive: 49.3%
45 | CC(/C=C/c1ccccc1)=N\NC(=S)NC(C)C | inconclusive: 31.9%
46 | O=C(NCc1ccc2c(c1)OCO2)C1CCC(CNS(=O)(=O)c2cccc3nsnc23)CC1 (stereo not given) | inactive: 1.74%

Row | Compound | activation
47 | CC1CN(S(=O)(=O)c2ccc(C(=O)Nc3nnc(-c4ccccn4)o3)cc2)CC(C)O1 (stereo not given) | inactive: -7.41%
48 | Cc1ccccc1NC(=O)c1ccccc1NC(=O)Cc1cccc2ccccc12 | inconclusive: 34.7%
49 | COC(=O)c1cccc(Nc2nc3ccccc3nc2C)c1 | inconclusive: 34.9%
50 | C1=Nc2c(Nc3ccccc3)ncnc2Oc2ccccc21 | inconclusive: 73.8%
51 | O=C(CN1CCN(Cc2ccccc2F)CC1)Nc1ccccc1Cl | inactive: 16.7%
52 | Clc1ccc(OCc2cn3ccccc3n2)c2ncccc12 | inconclusive: 35.2%
53 | Cc1c(C(=O)N2CC(C(=O)N3CCCCC3)Oc3ccccc32)oc2ccccc12 (stereo not given) | inconclusive: 63.5%
54 | COc1ccc(C(=O)NC2CCN(S(=O)(=O)c3ccccc3F)CC2)cc1 | inconclusive: 77.2%
55 | CN(CC(=O)OCC(N)=O)S(=O)(=O)c1ccc(Cl)cc1 | inactive: 1.36%
56 | C[C@](N)(Cc1ccc(O)c(O)c1)C(=O)O | inactive: -0.499%
57 | C(=N\Nc1nc(N2CCOCC2)nc(N2CCOCC2)n1)/c1cccnc1 | inconclusive: 59.7%
58 | O=C(NCc1ccc(F)cc1)C1(S(=O)(=O)c2ccc(Cl)cc2)CC1 | inactive: 4.74%
59 | O=C(Nc1ccncc1)C1CCN(S(=O)(=O)c2cccc(C(F)(F)F)c2)CC1 | inconclusive: 47.7%
60 | CCCn1cc(S(=O)(=O)c2ccc(C)cc2)c(=O)c2cc(OCC)ccc21 | inconclusive: 70.4%
61 | Cc1ccc(C2=NS(=O)(=O)N(C)C(C(=O)NCc3cccs3)=C2)cc1 | active: 91.5%
62 | COC(=O)c1c(NC(=O)CC2SC(N)=NC2=O)sc2c1CCC(C(C)(C)C)C2 (stereo not given) | inconclusive: 34.4%
63 | CCOc1ccccc1CSc1nc2ccccc2[nH]1 | inconclusive: 34.8%
64 | C/C(=N/NC(=O)c1ccoc1C)c1ccc(NC(=O)c2ccncc2)cc1 | inconclusive: 32.3%
65 | O=C(CN1C(=O)NC2(CCCC2)C1=O)Nc1cc(Cl)ccc1Oc1ccccc1 | inconclusive: 45.3%
66 | Cc1cccc(C(=O)N2CCCC(Nc3ccc(C(C)C)cc3)C2)n1 (stereo not given) | inconclusive: 69%
67 | Cc1ccc(N2CCN(C(=O)C3CCCN(c4ncnc5c4nc4n5CCCCC4)C3)CC2)c(C)c1 (stereo not given) | inconclusive: 73.5%
68 | O=C(CCCSc1ccccc1)Nc1nc(-c2ccccn2)cs1 | inconclusive: 41.8%
69 | C=CCSc1nnc(N2C(=O)C(O)=C(C(=O)c3ccco3)C2c2ccc(F)cc2)s1 (stereo not given) | inconclusive: 32.1%

Row | Compound | activation
70 | CCOC(=O)c1cc2c(ccc3ccccc32)oc1=O | inconclusive: 33.6%
71 | Cc1cc(C)n(-c2ccc(C(=O)NC3CCCCC3)cc2)n1 | inconclusive: 31.3%
72 | N#CC1(c2nc3ccccc3[nH]2)CC1c1ccc2c(c1)OCO2 (stereo not given) | inconclusive: 54.1%
73 | COc1cc(O)c(C(CCN2CCCC2)c2ccc(N(C)C)cc2)c(OC)c1 (stereo not given) | inactive: 5.22%
74 | O=C(NC(=S)Nc1cccc(Cl)c1N1CCCCC1)c1cccs1 | inconclusive: 41.1%
75 | Cc1ccc(CC(=O)NC(C)CCc2ccccc2)cc1 (stereo not given) | inconclusive: 51.4%
76 | O=C(COC(=O)c1ccc(F)cc1F)NC1CC1 | inconclusive: 38.3%
77 | O=C(Nc1ccccc1C(=O)O)c1ccc(NC(=O)C2CCCCC2)cc1 | inactive: 1.88%
78 | COc1cccc(NC(=O)Nc2nc(-c3ccc(OC)c(OC)c3)cs2)c1 | inactive: 2.27%
79 | O=C(CSc1cccc(C(F)(F)F)c1)N1CCN(S(=O)(=O)c2ccccc2)CC1 | inconclusive: 56.9%
80 | Cc1ccsc1C(=O)Nc1ccccc1N1CCCC1 | inactive: 1.11%
81 | O=C(Nc1ccc(N2CCCCCC2)cc1)c1cccc(S(=O)(=O)N2CCOCC2)c1 | active: 87.3%
82 | Cn1c(=O)cc(SCC(=O)N2CCOCC2)c2ccc(Cl)cc21 | inconclusive: 60.1%
83 | C/C(=N\NC(=O)C1(C)CC1(Br)Br)c1ccc([N+](=O)[O-])cc1 (stereo not given) | inconclusive: 32.2%
84 | COc1ccc(CN(C)CC(O)COc2ccc(C(=O)c3ccccc3)cc2)c(OC)c1OC (stereo not given) | inactive: 1.21%
85 | CC1(C)C(c2ccco2)=[N+]([O-])C2(CCCCC2=O)N1O (stereo not given) | inactive: -0.907%
86 | CC(C)c1ccc(CNNC(=O)c2ccccc2)cc1 | active: 83.3%
87 | Cc1nnc(SCC(=O)N(C)c2c(N)n(Cc3ccccc3)c(=O)[nH]c2=O)n1Cc1ccccc1 | inactive: -2.34%
88 | COc1ccc(-c2nnc(C3CCN(S(=O)(=O)c4ccccc4)CC3)o2)cc1 | inactive: 4.05%
89 | Cc1ccc(C(=O)CSc2nnc(COc3cccc(C)c3)o2)cc1 | inconclusive: 30.1%
90 | O=C(c1ccc([N+](=O)[O-])s1)N1CCN(c2ccccc2)CC1 | inconclusive: 58.5%

Molecules above containing a CF3 group, in the order listed:
Row | Compound | activation
15 | O=C(CSCc1ccccc1)N1CCN(c2cccc(C(F)(F)F)c2)CC1 | inconclusive: 44.8%
30 | CCCNc1nc(OCC(F)(F)F)nc(OCC(F)(F)F)n1 | inactive: 2.08%
59 | O=C(Nc1ccncc1)C1CCN(S(=O)(=O)c2cccc(C(F)(F)F)c2)CC1 | inconclusive: 47.7%
79 | O=C(CSc1cccc(C(F)(F)F)c1)N1CCN(S(=O)(=O)c2ccccc2)CC1 | inconclusive: 56.9%
